Results as given in patent US20240390581A1, “METHOD AND APPARATUS FOR A STEADY STATE INT[…] OF SEROTONERGIC DRUGS” (PSOULMED, LLC, priority 2021, published 2024).

Test system: vein
Assay: Additives to the intravenous DMT infusion, flow rate and venous injury
Assay type: in vivo
From the text: In this respect, the inventors addressed the following goals: • 1. […] A method for combining goals 1 and/or 2 with nitroglycerine ointment on the vein to be cannulated prior to gaining intravenous access, which improves vein patency and dilution from blood flow as well as normal saline. • 4. A method for creating an injectable form of a DMT salt such as fumarate, or freebase DMT in a solution or suspension or emulsion in an iso-osmolar or near iso-osmolar carrier such as hyaluronic acid or polyethylene glycol, as to minimize molecular interaction with the walls and endothelium of the peripheral vasculature, while maintaining water soluble or miscible properties as to not adversely affect the pharmacokinetics. • 5. A method for utilizing goal 4, with any other drug or substance that may cause venous irritation, to minimize the risk of thrombophlebitis, such as nanoparticles or crystals in suspension, or similarly, chemotherapeutic drugs, anesthetic agents and the like.

Row | Molecule | effect on flow rate (magnesium 0.1 mg/mL to 100 mg/mL in DMT infusion or maintenance line) | effect on flow rate (heparin 0.1-100 IU per mL)
1 | [Mg+2] [magnesium] | improve flow rate | –
2 | heparin | – | improve flow rate
